Results from patent publication US20210277003A1, “OGA INHIBITOR COMPOUNDS” (Janssen Pharmaceutica NV, priority 2018, published 2021).
The match of structure and compound is tentative.

Amino acid sequences for entries named in this document (tags omitted).
UniProt O60502, whole entry: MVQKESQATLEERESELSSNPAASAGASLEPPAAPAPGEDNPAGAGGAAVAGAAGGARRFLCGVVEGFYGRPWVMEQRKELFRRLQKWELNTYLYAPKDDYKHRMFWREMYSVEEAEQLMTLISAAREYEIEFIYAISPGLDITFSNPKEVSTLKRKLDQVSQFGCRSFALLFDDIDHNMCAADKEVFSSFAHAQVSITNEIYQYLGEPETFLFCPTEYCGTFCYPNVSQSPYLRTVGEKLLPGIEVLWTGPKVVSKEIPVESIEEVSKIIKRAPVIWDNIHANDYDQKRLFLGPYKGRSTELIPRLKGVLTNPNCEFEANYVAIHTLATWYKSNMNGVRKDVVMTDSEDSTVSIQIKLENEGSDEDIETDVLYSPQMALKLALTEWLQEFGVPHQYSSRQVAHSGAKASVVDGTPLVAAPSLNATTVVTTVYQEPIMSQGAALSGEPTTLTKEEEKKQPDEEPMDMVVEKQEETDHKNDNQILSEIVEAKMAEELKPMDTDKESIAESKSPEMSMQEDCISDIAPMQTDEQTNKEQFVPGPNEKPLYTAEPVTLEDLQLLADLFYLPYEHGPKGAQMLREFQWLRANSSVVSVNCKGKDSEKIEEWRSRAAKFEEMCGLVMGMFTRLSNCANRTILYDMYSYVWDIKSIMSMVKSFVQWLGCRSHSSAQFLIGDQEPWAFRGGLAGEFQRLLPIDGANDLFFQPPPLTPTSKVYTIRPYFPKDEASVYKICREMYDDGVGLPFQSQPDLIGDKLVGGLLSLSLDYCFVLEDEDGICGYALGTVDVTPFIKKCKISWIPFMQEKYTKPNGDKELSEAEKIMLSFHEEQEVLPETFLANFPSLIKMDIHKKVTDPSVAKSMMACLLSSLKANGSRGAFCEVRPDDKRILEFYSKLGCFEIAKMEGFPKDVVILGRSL

Biological target: recombinant human Meningioma Expressed Antigen 5 (MGEA5), also referred to as O-GlcNAcase (OGA) (Homo sapiens, UniProt O60502)
Experiment: OGA biochemical assay: inhibition of hydrolysis of fluorescein mono-ß-D-N-Acetyl-Glucosamine (FM-GlcNAc), fluorescence readout
Settings: FM-GlcNAc substrate
Description: The assay is based on the inhibition of the hydrolysis of fluorescein mono-ß-D-N-Acetyl-Glucosamine (FM-GlcNAc) (Mariappa et al. 2015, Biochem J 470:255) by the recombinant human Meningioma Expressed Antigen 5 (MGEA5), also referred to as O-GlcNAcase (OGA). The hydrolysis FM-GlcNAc (Marker Gene technologies, cat #M1485) results in the formation of ß-D-N-glucosamineacetate and fluorescein. The fluorescence of the latter can be measured at excitation wavelength 485 nm and emission wavelength 538 nm. An increase in enzyme activity results in an increase in fluorescence signal. Full length OGA enzyme was purchased at OnGene (cat #TP322411). The enzyme was stored in 25 mM Tris.HCl, pH 7.3, 100 mM glycine, 10% glycerol at −20° C. Thiamet G and GlcNAcStatin were tested as reference compounds (Yuzwa et al. 2008 Nature Chemical Biology 4:483; Yuzwa et al. 2012 Nature Chemical Biology 8:393). The assay was performed in 200 mM Citrate/phosphate buffer supplemented with 0.005% Tween-20. 35.6 g Na2HPO4 2 H2O (Sigma, #C0759) were dissolved in 1 L water to obtain a 200 mM solution. […] Fluorescence was quantified in the Thermo Scientific Fluoroskan Ascent or the PerkinElmer EnVision with excitation wavelength 485 nm and emission wavelength 538 nm. […]

Enzymatic Emax (%): 95.09%
Enzymatic hOGA; pIC50: 6.19
SMILES: Fc1cc(Cl)c(Nc2nccc3c2ccn3-c2cc[nH]n2)c(Cl)c1
